Data: the supplement of paper PMC12819154, “High-throughput peptide-centric local stability assay extends protein–ligand identification to membrane proteins, tissues and bacteria” (Nature Structural & Molecular Biology, 2025)
Some of the results follow. Most entries show no effect beyond the scatter of the controls.

Amino acid sequences for entries named in this document (tags omitted). A change or cut given only in a name is not applied to a line headed by its entry.
UniProt P19258: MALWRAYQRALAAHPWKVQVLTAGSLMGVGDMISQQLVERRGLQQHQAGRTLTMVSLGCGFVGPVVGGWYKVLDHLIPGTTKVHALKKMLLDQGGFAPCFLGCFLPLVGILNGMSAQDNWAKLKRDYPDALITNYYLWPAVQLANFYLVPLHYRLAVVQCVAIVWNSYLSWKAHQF
UniProt P05784: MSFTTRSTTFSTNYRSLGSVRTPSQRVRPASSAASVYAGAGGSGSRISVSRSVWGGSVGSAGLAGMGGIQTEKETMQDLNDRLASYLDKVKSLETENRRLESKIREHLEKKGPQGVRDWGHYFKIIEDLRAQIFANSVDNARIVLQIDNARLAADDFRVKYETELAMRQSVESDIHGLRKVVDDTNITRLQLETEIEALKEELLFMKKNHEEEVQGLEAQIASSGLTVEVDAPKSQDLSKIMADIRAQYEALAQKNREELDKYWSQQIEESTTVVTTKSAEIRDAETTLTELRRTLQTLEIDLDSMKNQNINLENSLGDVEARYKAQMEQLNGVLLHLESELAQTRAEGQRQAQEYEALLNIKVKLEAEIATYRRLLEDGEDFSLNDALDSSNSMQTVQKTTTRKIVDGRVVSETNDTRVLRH
UniProt P16294, whole entry: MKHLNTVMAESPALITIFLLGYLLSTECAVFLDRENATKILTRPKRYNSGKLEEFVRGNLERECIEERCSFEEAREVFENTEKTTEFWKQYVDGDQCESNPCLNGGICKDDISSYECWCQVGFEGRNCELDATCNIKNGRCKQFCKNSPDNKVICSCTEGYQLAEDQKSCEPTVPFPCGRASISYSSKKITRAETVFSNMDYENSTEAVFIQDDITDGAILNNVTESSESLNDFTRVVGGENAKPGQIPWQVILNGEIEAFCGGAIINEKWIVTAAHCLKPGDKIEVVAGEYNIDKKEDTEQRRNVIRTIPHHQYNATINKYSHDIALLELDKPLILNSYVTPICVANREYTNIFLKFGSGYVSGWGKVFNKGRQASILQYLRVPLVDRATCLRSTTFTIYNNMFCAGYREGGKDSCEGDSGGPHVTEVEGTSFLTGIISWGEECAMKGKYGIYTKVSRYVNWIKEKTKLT
UniProt P14824: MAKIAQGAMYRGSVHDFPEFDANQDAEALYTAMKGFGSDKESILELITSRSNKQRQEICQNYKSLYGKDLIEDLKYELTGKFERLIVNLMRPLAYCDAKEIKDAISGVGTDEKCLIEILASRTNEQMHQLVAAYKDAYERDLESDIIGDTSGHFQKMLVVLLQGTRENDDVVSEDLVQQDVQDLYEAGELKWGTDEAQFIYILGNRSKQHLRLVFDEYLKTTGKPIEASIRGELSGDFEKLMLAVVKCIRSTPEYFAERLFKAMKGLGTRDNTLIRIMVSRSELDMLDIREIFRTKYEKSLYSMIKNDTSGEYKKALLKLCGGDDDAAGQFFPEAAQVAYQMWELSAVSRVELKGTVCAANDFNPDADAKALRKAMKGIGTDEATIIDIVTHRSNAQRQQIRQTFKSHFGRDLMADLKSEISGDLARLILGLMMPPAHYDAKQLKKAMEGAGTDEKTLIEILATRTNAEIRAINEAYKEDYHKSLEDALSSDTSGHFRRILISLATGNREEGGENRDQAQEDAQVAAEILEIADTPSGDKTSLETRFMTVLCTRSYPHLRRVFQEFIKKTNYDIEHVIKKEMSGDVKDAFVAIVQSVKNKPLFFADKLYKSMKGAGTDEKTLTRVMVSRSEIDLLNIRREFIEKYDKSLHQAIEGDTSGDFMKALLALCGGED
UniProt P19426, whole entry: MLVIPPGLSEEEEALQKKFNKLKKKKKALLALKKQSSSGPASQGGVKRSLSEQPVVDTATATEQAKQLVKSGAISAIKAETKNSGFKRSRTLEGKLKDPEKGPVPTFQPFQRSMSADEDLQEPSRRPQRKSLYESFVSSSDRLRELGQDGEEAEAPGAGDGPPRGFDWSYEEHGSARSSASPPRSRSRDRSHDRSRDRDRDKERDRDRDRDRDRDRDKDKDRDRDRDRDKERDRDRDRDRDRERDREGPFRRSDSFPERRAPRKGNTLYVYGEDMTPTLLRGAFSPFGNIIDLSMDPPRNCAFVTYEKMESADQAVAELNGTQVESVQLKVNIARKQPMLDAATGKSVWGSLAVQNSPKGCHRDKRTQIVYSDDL
UniProt P03893: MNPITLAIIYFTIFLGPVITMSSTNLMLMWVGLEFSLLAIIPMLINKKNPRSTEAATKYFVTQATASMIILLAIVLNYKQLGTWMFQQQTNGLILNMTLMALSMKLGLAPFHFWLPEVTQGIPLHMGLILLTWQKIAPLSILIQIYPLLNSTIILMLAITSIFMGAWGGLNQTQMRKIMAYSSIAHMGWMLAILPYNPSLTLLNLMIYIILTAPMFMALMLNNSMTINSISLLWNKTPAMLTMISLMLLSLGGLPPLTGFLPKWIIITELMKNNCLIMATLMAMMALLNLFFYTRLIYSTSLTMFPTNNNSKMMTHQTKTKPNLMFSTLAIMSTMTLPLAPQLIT
UniProt P20029: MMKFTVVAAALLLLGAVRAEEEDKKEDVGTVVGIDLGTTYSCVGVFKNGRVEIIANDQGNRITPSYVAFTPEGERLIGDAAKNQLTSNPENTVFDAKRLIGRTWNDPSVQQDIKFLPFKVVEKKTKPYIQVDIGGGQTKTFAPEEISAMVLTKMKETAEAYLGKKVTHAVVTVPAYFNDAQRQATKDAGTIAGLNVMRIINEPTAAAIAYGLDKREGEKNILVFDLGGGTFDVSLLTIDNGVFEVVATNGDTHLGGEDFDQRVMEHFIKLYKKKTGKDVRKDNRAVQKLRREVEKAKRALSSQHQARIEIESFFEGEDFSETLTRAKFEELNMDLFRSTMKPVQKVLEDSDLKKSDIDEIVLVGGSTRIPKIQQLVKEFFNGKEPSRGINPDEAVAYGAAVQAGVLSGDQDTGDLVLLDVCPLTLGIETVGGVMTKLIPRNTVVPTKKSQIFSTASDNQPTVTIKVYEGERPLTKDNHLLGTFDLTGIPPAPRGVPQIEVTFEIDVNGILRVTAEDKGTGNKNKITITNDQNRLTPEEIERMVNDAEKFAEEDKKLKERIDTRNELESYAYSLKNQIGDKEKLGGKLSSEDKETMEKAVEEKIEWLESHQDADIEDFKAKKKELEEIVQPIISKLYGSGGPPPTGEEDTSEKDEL
UniProt P17225: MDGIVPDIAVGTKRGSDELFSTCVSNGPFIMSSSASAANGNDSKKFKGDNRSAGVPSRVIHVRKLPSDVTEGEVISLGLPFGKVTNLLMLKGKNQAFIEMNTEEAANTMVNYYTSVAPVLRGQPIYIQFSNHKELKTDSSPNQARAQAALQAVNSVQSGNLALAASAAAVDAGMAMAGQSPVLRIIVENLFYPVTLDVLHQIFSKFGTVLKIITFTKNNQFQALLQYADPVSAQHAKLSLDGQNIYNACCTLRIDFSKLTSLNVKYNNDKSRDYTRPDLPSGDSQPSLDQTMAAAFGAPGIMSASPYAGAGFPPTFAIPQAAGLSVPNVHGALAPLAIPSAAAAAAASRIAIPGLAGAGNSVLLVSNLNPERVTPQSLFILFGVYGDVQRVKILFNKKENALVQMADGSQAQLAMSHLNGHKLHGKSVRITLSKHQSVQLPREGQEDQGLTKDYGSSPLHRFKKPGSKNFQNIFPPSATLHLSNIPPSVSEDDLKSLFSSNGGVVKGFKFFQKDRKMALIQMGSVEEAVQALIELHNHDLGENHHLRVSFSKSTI
UniProt P11862, whole entry: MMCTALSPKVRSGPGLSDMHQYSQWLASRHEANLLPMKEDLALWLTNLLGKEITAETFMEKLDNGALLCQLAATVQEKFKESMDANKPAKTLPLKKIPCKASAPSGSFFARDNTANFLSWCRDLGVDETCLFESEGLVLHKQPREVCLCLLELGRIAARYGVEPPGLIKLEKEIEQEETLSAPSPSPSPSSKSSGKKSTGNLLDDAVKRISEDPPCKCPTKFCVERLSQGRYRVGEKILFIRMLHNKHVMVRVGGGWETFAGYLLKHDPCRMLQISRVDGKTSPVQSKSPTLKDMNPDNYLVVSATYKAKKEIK
UniProt P03921, whole entry: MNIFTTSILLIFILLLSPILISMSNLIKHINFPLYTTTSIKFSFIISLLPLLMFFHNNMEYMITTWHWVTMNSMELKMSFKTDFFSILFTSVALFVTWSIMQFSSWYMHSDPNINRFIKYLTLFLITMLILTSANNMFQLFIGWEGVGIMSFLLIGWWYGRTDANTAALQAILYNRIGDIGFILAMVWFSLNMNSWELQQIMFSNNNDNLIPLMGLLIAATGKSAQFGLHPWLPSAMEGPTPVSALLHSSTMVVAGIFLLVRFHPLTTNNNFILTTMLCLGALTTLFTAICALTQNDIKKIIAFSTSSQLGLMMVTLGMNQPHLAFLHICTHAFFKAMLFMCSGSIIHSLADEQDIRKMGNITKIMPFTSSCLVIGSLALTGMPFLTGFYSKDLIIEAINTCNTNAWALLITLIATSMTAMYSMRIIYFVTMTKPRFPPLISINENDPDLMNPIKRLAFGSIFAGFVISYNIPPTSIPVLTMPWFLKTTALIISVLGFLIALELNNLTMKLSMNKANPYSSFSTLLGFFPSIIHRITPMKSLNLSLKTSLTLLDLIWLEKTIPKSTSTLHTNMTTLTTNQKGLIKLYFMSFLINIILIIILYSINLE
UniProt P17710: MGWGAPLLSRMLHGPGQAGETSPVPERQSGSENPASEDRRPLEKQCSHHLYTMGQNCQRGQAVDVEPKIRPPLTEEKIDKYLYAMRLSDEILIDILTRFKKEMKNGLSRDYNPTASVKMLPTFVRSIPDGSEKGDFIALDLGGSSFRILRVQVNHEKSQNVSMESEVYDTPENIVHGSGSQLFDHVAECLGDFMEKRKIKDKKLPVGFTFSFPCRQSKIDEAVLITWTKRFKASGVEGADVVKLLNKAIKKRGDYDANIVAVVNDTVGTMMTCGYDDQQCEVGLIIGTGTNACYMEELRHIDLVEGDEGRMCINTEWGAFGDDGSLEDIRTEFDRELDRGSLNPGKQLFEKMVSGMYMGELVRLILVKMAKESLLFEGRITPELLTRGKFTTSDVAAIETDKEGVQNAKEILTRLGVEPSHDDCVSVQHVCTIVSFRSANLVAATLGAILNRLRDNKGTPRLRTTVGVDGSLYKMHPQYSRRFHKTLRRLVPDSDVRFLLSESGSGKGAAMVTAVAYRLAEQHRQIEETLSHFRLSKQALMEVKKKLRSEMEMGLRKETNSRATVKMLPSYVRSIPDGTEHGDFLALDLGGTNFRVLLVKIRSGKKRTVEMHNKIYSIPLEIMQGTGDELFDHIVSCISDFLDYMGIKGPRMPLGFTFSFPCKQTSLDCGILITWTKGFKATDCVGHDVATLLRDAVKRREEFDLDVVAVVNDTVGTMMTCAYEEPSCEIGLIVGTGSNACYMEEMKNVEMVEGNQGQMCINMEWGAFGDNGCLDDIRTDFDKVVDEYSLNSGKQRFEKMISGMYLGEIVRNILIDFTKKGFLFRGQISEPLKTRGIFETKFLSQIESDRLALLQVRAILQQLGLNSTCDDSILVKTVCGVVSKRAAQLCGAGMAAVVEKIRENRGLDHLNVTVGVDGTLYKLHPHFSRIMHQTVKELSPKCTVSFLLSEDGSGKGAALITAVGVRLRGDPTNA
UniProt P26040, whole entry: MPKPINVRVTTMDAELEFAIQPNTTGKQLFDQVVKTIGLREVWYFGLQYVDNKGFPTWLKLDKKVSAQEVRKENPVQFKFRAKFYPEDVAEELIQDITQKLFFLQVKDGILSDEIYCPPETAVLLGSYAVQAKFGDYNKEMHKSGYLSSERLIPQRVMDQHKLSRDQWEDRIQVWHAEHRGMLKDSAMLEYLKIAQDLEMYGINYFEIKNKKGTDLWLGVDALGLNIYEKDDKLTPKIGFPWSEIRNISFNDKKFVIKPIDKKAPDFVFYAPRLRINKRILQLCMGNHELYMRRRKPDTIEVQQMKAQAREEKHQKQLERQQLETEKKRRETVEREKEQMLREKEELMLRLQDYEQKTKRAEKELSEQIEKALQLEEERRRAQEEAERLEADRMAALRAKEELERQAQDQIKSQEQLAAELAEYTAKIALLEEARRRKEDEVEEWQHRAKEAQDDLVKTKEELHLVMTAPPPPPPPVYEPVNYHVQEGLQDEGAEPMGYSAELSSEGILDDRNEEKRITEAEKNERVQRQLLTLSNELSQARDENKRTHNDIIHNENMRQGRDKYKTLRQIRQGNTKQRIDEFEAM
UniProt P14211: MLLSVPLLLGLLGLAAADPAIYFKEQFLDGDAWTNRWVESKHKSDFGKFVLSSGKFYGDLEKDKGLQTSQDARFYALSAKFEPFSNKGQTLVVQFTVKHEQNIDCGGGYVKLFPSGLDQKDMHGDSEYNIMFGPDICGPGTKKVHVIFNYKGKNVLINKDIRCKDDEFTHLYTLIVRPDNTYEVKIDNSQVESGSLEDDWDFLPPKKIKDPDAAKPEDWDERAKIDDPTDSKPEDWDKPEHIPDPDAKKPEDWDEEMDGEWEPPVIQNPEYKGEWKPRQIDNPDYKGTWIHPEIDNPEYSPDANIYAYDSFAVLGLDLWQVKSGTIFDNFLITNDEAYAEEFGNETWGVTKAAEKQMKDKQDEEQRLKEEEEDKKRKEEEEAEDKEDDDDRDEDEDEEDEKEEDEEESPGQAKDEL

What follows are targets tested with CN[C@@H]1C[C@H]2O[C@@](C)([C@@H]1OC)n1c3ccccc3c3c4c(c5c6ccccc6n2c5c31)C(=O)NC4 [staurosporine] (assay: log2 fold change of pooled soluble protein (PISA), ligand vs vehicle (log2 ratio); higher = more thermally stabilized). Settings: ligand concentration: 20 uM; assay format: PISA pool 52.9/55.5/58.6 C.

| Target | log2 fold change of pooled soluble protein |
| --- | --- |
| UniProt P16406 | 0.0209 |
| UniProt P25446 | 0.046 |
| UniProt P18608 | 0.0304 |
| UniProt P0DOV2 | 0.0169 |
| UniProt P17426 | 0.07 |
| UniProt P19258 | -0.403 |
| UniProt P14429 | -0.0582 |
| UniProt P20108 | -0.0253 |
| UniProt P07759 | 0.0817 |
| UniProt P05784 | -0.327 |
| UniProt P16294 | -0.0111 |
| UniProt P14824 | -0.0642 |
| UniProt P05201 | 0.0123 |
| UniProt P09055 | -0.0367 |
| UniProt P19426 | 0.148 |
| UniProt P16332 | -0.0578 |
| P0C0S6;Q3THW5 | -0.0203 |
| UniProt P03893 | -0.144 |
| UniProt P20029 | -0.0067 |

| Target | log2 fold change of pooled soluble protein |
| --- | --- |
| UniProt P17225 | -0.0908 |
| UniProt P11862 | -0.0147 |
| UniProt P03921 | -0.0634 |
| UniProt P14733 | -0.0468 |
| UniProt P24063 | 0.0304 |
| UniProt P01898 | -0.00487 |
| UniProt P17710 | -0.0387 |
| UniProt P16460 | 0.0323 |
| UniProt P18760 | -0.133 |
| UniProt P12970 | -0.0755 |
| UniProt P10711 | -0.0793 |
| UniProt P17717 | -0.178 |
| UniProt P14148 | -0.0537 |
| UniProt P08249 | -0.165 |
| UniProt P26040 | 0.00785 |
| UniProt P14211 | 0.0758 |
| UniProt P11531 | 0.0463 |
| UniProt P15116 | 0.0175 |
| UniProt P27546 | 0.0232 |

Exported tab-delimited: part of the list above.
Target	log2 fold change of pooled soluble protein
UniProt P08249	-0.165
UniProt P26040	0.00785
